Experimental data from the supplement of paper PMC12067093, “Discovery and optimisation of a covalent ligand for TRIM25 and its application to targeted protein ubiquitination” (Chemical Science, 2025).
The other results are listed elsewhere or left out.

The chains behind the UniProt entries cited, without tags or fusion partners. Where a name states a change or a piece, a line headed by the entry shows the natural chain unless it says otherwise.
UniProt P42331: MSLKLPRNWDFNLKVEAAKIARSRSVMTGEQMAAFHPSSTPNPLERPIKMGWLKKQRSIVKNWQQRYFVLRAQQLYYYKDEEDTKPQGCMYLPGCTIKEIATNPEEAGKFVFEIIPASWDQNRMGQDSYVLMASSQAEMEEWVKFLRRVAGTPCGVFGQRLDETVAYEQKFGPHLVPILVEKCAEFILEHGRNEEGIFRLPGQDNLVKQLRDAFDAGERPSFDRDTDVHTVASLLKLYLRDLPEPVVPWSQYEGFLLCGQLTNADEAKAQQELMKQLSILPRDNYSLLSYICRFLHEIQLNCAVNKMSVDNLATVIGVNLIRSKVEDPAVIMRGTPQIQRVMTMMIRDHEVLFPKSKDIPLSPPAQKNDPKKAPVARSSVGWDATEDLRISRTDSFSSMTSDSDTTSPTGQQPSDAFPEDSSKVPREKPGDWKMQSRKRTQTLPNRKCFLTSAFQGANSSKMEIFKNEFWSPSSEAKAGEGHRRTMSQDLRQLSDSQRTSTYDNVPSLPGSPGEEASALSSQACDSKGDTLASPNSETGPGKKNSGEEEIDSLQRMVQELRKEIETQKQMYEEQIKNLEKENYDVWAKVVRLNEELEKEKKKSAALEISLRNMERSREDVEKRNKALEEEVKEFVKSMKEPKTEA
UniProt Q92619: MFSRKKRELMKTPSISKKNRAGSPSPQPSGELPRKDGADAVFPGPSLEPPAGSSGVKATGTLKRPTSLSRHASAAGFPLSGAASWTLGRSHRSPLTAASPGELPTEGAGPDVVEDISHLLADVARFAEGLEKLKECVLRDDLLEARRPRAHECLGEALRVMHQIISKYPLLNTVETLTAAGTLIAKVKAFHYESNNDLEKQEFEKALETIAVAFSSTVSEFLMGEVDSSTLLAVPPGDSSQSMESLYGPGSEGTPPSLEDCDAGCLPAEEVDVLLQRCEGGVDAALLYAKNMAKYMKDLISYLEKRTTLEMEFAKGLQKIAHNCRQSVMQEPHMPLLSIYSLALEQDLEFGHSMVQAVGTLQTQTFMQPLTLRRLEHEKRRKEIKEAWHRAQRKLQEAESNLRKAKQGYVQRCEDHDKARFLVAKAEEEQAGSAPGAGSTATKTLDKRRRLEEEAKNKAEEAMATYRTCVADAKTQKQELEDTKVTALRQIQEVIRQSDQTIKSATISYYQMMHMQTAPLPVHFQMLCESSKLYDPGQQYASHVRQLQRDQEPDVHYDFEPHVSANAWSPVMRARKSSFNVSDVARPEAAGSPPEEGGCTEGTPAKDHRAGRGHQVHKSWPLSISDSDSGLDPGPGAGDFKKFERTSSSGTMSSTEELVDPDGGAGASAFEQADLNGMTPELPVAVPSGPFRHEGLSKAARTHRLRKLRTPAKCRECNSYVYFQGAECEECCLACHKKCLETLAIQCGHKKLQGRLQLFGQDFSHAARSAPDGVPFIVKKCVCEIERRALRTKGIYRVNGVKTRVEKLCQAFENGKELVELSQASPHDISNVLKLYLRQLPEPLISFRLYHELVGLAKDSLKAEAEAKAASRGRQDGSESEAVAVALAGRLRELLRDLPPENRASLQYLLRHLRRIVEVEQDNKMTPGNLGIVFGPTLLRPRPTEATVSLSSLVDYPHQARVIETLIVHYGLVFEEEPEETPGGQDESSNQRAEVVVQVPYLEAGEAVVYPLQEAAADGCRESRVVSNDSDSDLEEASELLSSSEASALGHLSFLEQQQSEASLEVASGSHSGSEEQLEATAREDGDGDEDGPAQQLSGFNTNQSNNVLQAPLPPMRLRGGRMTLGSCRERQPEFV
UniProt O95376: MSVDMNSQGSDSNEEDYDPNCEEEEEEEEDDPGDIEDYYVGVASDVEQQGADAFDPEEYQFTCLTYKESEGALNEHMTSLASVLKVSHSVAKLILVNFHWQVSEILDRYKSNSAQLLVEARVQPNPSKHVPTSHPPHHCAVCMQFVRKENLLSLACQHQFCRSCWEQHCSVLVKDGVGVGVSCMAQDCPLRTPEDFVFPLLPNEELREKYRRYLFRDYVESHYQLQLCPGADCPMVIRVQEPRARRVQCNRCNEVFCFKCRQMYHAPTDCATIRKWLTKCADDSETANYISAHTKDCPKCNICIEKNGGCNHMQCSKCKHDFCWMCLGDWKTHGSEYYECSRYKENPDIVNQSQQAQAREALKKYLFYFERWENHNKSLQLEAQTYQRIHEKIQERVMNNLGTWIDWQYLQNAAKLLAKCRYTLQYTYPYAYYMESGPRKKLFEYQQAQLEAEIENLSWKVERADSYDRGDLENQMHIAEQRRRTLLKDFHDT
UniProt Q6ZSZ5: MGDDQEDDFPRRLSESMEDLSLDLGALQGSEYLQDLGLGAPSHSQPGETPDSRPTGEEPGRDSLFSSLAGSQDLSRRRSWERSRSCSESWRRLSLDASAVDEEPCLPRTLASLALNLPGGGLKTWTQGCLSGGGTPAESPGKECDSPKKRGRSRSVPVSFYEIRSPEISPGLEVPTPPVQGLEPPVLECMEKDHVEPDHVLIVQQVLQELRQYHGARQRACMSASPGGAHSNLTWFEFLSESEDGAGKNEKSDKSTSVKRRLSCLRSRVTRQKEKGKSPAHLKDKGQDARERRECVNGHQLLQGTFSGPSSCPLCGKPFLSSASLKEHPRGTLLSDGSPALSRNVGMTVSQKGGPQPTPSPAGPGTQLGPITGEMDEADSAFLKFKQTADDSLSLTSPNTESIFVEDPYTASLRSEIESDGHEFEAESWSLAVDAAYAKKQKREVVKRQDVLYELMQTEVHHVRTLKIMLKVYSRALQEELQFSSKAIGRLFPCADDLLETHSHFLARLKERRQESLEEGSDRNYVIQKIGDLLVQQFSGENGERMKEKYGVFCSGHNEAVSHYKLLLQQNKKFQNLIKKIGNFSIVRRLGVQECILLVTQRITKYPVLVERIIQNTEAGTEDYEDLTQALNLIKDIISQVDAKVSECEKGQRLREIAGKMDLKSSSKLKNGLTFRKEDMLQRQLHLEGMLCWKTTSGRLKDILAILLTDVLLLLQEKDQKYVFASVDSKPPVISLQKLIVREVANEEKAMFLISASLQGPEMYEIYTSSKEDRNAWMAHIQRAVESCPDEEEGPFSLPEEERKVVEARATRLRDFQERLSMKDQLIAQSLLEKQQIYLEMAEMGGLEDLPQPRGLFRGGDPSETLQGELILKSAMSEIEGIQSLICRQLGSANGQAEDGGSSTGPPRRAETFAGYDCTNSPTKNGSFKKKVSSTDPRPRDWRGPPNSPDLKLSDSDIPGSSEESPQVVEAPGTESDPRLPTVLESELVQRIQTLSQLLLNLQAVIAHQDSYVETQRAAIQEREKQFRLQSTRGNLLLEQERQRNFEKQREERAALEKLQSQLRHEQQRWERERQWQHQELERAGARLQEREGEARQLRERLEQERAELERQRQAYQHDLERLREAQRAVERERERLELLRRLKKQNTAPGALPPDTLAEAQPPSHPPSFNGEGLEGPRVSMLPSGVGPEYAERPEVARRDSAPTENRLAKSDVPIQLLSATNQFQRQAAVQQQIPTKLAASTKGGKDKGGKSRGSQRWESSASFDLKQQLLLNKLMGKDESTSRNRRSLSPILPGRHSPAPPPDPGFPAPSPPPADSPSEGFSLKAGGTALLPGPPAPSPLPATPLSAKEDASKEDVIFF
UniProt Q15052: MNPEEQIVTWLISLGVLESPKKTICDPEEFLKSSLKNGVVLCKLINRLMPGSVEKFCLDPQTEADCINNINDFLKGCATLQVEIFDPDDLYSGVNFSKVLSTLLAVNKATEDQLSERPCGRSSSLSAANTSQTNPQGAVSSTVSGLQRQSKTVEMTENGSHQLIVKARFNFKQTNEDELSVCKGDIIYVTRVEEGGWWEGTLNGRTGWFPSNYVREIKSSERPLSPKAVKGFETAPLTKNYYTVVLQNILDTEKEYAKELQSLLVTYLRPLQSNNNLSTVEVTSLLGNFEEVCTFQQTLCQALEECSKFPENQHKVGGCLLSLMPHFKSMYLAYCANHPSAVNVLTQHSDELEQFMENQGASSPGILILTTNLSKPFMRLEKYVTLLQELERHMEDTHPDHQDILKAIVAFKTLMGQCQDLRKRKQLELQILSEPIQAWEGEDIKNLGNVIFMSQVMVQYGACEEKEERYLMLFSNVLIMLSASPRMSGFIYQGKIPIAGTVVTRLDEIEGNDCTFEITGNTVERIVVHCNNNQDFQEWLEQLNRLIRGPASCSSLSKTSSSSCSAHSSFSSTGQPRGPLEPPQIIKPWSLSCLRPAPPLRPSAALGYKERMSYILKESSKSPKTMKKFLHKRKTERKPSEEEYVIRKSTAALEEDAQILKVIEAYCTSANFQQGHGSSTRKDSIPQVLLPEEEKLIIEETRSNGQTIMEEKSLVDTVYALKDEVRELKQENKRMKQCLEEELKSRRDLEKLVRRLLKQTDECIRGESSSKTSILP
UniProt Q8N8R7: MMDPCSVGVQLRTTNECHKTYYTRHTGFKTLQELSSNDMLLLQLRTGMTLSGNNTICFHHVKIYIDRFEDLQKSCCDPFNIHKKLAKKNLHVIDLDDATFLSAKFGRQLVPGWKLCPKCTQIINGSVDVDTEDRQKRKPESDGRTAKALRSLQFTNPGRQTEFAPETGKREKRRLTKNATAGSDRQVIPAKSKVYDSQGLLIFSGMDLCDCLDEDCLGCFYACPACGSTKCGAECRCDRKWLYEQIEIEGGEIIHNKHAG
UniProt Q9Y2Y0: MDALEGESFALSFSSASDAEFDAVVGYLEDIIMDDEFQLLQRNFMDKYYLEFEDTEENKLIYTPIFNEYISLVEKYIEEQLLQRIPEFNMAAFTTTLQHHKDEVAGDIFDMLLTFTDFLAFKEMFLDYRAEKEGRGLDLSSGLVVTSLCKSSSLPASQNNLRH
UniProt O60306: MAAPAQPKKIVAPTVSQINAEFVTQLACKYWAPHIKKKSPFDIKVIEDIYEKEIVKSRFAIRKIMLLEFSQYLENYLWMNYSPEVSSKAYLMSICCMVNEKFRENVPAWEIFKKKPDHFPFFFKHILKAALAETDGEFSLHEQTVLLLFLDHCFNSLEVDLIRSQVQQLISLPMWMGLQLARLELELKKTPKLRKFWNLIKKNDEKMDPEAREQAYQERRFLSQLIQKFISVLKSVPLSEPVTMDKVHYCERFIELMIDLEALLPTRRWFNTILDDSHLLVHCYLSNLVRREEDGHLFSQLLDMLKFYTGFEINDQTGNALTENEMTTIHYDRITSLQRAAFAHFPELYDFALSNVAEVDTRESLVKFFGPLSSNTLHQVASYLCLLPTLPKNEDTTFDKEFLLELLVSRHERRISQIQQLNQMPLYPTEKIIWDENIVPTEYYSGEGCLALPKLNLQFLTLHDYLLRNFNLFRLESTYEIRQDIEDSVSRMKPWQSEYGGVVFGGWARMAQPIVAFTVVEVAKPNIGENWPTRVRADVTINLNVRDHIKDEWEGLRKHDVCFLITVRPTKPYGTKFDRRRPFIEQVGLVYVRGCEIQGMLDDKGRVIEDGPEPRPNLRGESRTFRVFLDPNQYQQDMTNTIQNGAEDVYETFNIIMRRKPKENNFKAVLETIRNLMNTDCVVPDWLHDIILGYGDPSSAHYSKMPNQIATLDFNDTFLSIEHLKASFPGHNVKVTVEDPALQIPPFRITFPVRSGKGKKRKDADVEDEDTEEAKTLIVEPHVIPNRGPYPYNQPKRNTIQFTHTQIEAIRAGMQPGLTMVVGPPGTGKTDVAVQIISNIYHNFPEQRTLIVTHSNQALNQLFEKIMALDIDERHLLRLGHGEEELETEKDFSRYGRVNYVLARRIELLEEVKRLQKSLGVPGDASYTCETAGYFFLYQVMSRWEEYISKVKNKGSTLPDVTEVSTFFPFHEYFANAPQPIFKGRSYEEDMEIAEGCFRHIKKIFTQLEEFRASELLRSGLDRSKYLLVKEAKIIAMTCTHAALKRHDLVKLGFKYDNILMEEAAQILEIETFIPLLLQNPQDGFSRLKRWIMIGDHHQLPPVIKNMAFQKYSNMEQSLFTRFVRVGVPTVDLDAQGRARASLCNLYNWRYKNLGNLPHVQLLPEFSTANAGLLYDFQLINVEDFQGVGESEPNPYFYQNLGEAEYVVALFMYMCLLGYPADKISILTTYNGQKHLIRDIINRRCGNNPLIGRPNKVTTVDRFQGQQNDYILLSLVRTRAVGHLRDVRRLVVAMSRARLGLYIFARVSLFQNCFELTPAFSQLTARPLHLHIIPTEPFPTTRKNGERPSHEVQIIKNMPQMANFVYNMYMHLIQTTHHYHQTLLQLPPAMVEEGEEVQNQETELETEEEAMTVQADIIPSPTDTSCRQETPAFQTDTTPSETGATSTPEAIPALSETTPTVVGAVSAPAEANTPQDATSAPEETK
UniProt Q15041, whole entry: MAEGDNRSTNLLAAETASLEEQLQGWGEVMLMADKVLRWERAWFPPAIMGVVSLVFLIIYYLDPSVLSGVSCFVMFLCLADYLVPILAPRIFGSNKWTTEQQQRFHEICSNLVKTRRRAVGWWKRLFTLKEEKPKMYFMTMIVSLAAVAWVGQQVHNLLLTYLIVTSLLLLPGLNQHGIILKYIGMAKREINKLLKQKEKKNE

Compound: CC1Cc2ccccc2N1C(=O)C1CCCN(C1)C(=O)CCl (mixture of isomers) [TRIM25 ligand 11 (diastereomer mixture)]
Test: probe-labelled cysteine peptide fold change vs DMSO (competition) (log2 fold change); higher = less target engagement (more negative = stronger competition)
Details: THP-1, incubation time: 4 h
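Also: competitive chemoproteomic profiling in live THP-1 cells with an iodoacetamide desthiobiotin (IA-DTB) probe, comparing probe-labelled peptide intensities in compound-treated cells against DMSO-treated controls.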

For “ARHGAP25_P42331_302_FLHEIQLNCAVNK (UniProt P42331)”, the “probe-labelled cysteine peptide fold change” value (10 µM) was 0.0542 and the “probe-labelled cysteine peptide fold change” value (50 µM) was 0.122.
In the case of “ARHGAP45_Q92619_747_CLETLAIQCGHK (UniProt Q92619)”, the “probe-labelled cysteine peptide fold change” value (10 µM) was -0.0234 and the “probe-labelled cysteine peptide fold change” value (50 µM) was -0.00666.
“ARIH2_O95376_233_DYVESHYQLQLCPGADCPMVIR (UniProt O95376)” was tested, and the “probe-labelled cysteine peptide fold change” value (10 µM) was -0.0979 and the “probe-labelled cysteine peptide fold change” value (50 µM) was 0.0662.
With “ARHGAP27_Q6ZUM4_830_MLFQHLCR (UniProt Q6ZUM4)” the “probe-labelled cysteine peptide fold change” value (10 µM) was 0.0529 and the “probe-labelled cysteine peptide fold change” value (50 µM) was 0.0803.
“ARID2_Q68CP9_1271_KIEVMENPSCR (UniProt Q68CP9)” was tested, and the “probe-labelled cysteine peptide fold change” value (10 µM) was -0.128 and the “probe-labelled cysteine peptide fold change” value (50 µM) was -0.356.
For “ARHGAP30_Q7Z6I6_965_IHVAPANPCPRPGR (UniProt Q7Z6I6)”, the “probe-labelled cysteine peptide fold change” value (10 µM) was 0.0724 and the “probe-labelled cysteine peptide fold change” value (50 µM) was -0.157.
“ARPC1B_O15143_13_AYHSFLVEPISCHAWNK (UniProt O15143)” was tested, and the “probe-labelled cysteine peptide fold change” value (10 µM) was 0.262 and the “probe-labelled cysteine peptide fold change” value (50 µM) was -0.0758.
In the case of “ARHGAP26_Q9UNA1_767_ALYACK (UniProt Q9UNA1)”, the “probe-labelled cysteine peptide fold change” value (10 µM) was -0.0175 and the “probe-labelled cysteine peptide fold change” value (50 µM) was 0.0363.
In the case of “ARHGEF18_Q6ZSZ5_692_QLHLEGMLCWK (UniProt Q6ZSZ5)”, the “probe-labelled cysteine peptide fold change” value (10 µM) was -0.154 and the “probe-labelled cysteine peptide fold change” value (50 µM) was -0.024.
“ARHGAP4_P98171_569_VSEIRDAFERGEDPLVEGCTAHDLDSVAGVLK (UniProt P98171)” was tested, and the “probe-labelled cysteine peptide fold change” value (10 µM) was -0.213 and the “probe-labelled cysteine peptide fold change” value (50 µM) was -0.101.
“APPL1_Q9UKG1_616_ICDSVGLAK (UniProt Q9UKG1)” was tested, and the “probe-labelled cysteine peptide fold change” value (10 µM) was 0.191 and the “probe-labelled cysteine peptide fold change” value (50 µM) was 0.123.
With “ARHGAP17_Q68EM7_53_RLVACFQGQHGTDAER (UniProt Q68EM7)” the “probe-labelled cysteine peptide fold change” value (10 µM) was 0.0321 and the “probe-labelled cysteine peptide fold change” value (50 µM) was -0.0173.
“ARAP1_Q96P48_376_FISVACISHVAAIGDQKFEVITNNR (UniProt Q96P48)” was tested, and the “probe-labelled cysteine peptide fold change” value (10 µM) was -0.24 and the “probe-labelled cysteine peptide fold change” value (50 µM) was 0.202.
For “ARHGEF1_Q92888_892_QLEELEEEFCR (UniProt Q92888)”, the “probe-labelled cysteine peptide fold change” value (10 µM) was -0.151 and the “probe-labelled cysteine peptide fold change” value (50 µM) was -0.0816.
In the case of “ARHGEF6_Q15052_57+66_FCLDPQTEADCINNINDFLK (UniProt Q15052)”, the “probe-labelled cysteine peptide fold change” value (10 µM) was -0.188 and the “probe-labelled cysteine peptide fold change” value (50 µM) was 0.0488.
For “ARHGAP35_Q9NRY4_89_SLEDCVECK (UniProt Q9NRY4)”, the “probe-labelled cysteine peptide fold change” value (10 µM) was 0.12 and the “probe-labelled cysteine peptide fold change” value (50 µM) was 0.0982.
In the case of “ARL14EP_Q8N8R7_75_SCCDPFNIHKK (UniProt Q8N8R7)”, the “probe-labelled cysteine peptide fold change” value (10 µM) was -0.099 and the “probe-labelled cysteine peptide fold change” value (50 µM) was -0.0337.
With “ARL2BP_Q9Y2Y0_149_GLDLSSGLVVTSLCK (UniProt Q9Y2Y0)” the “probe-labelled cysteine peptide fold change” value (10 µM) was -0.0154 and the “probe-labelled cysteine peptide fold change” value (50 µM) was -0.0879.
With “AQR_O60306_997_SYEEDMEIAEGCFR (UniProt O60306)” the “probe-labelled cysteine peptide fold change” value (10 µM) was 0.258 and the “probe-labelled cysteine peptide fold change” value (50 µM) was 0.218.
For “ARL6_Q9H0F7_148_VSQLLCLENIK (UniProt Q9H0F7)”, the “probe-labelled cysteine peptide fold change” value (10 µM) was -0.042 and the “probe-labelled cysteine peptide fold change” value (50 µM) was 0.0128.
“ARFGEF1_Q9Y6D6_102_IVSTSLDCLQK (UniProt Q9Y6D6)” was tested, and the “probe-labelled cysteine peptide fold change” value (10 µM) was -0.0997 and the “probe-labelled cysteine peptide fold change” value (50 µM) was -0.0175.
With “ARNT_P27540_62_CDDDQMSNDK (UniProt P27540)” the “probe-labelled cysteine peptide fold change” value (10 µM) was -0.141 and the “probe-labelled cysteine peptide fold change” value (50 µM) was -0.179.
“ARL14EP_Q8N8R7_17_TTNECHK (UniProt Q8N8R7)” was tested, and the “probe-labelled cysteine peptide fold change” value (10 µM) was 0.0006 and the “probe-labelled cysteine peptide fold change” value (50 µM) was 0.0257.
In the case of “APTX_Q7Z2E3_333+336_CHECQQLLPSIPQLK (UniProt Q7Z2E3)”, the “probe-labelled cysteine peptide fold change” value (10 µM) was 0.159 and the “probe-labelled cysteine peptide fold change” value (50 µM) was 0.0857.
“ARHGAP9_Q9BRR9_666_AALALSESEQCLSQIQELIGSMPKPNHDTLR (UniProt Q9BRR9)” was tested, and the “probe-labelled cysteine peptide fold change” value (10 µM) was -0.245 and the “probe-labelled cysteine peptide fold change” value (50 µM) was -0.323.
For “ARHGAP30_Q7Z6I6_407_CAGVHISDPYNVNLPLHITSILSVPPNIISNVSLAR (UniProt Q7Z6I6)”, the “probe-labelled cysteine peptide fold change” value (10 µM) was -0.395 and the “probe-labelled cysteine peptide fold change” value (50 µM) was -0.249.
In the case of “ARL6IP1_Q15041_109_FHEICSNLVK (UniProt Q15041)”, the “probe-labelled cysteine peptide fold change” value (10 µM) was 0.0835 and the “probe-labelled cysteine peptide fold change” value (50 µM) was 0.0223.
With “ARHGAP44_Q17R89_193_ADALREEMEEAANRVEICR (UniProt Q17R89)” the “probe-labelled cysteine peptide fold change” value (10 µM) was -0.149 and the “probe-labelled cysteine peptide fold change” value (50 µM) was 0.0811.
For “ARHGAP45_Q92619_136_ECVLRDDLLEAR (UniProt Q92619)”, the “probe-labelled cysteine peptide fold change” value (10 µM) was -0.0608 and the “probe-labelled cysteine peptide fold change” value (50 µM) was -0.171.
“AQR_O60306_28_KIVAPTVSQINAEFVTQLACK (UniProt O60306)” was tested, and the “probe-labelled cysteine peptide fold change” value (10 µM) was 0.0261 and the “probe-labelled cysteine peptide fold change” value (50 µM) was -0.0383.
With “ARHGAP25_P42331_448_CFLTSAFQGANSSK (UniProt P42331)” the “probe-labelled cysteine peptide fold change” value (10 µM) was -0.145 and the “probe-labelled cysteine peptide fold change” value (50 µM) was -0.264.
“ARHGEF18_Q6ZSZ5_788_AVESCPDEEEGPFSLPEEERK (UniProt Q6ZSZ5)” was tested, and the “probe-labelled cysteine peptide fold change” value (10 µM) was 0.0507 and the “probe-labelled cysteine peptide fold change” value (50 µM) was -0.106.
For ARL2_P36404_102_MQDCQR (UniProt P36404), the “probe-labelled cysteine peptide fold change” value (10 µM) was 0.0325 and the “probe-labelled cysteine peptide fold change” value (50 µM) was -0.0232.
With “ARIH2_O95376_310_NGGCNHMQCSK (UniProt O95376)” the “probe-labelled cysteine peptide fold change” value (10 µM) was -0.0326 and the “probe-labelled cysteine peptide fold change” value (50 µM) was -0.0548.
In the case of “ARHGEF6_Q15052_182_QTNEDELSVCK (UniProt Q15052)”, the “probe-labelled cysteine peptide fold change” value (10 µM) was -0.0147 and the “probe-labelled cysteine peptide fold change” value (50 µM) was -0.0327.
“ARID1B_Q8NFD5_1919_SRDETPLCTIAHWQDSLAK (UniProt Q8NFD5)” was tested, and the “probe-labelled cysteine peptide fold change” value (10 µM) was 0.0694 and the “probe-labelled cysteine peptide fold change” value (50 µM) was -0.184.
“ARIH1_Q9Y4X5_269_YQHLITNSFVECNR (UniProt Q9Y4X5)” was tested, and the “probe-labelled cysteine peptide fold change” value (10 µM) was 0.0732 and the “probe-labelled cysteine peptide fold change” value (50 µM) was -0.0578.
“ARPC1A_Q92747_279_GCLTFVSK (UniProt Q92747)” was tested, and the “probe-labelled cysteine peptide fold change” value (10 µM) was 0.0993 and the “probe-labelled cysteine peptide fold change” value (50 µM) was 0.129.
